From US20120022116A1, “COMPOSITIONS AND METHODS FOR THE TREATMENT OF PATHOLOGICAL CONDITION(S) RELATED TO GPR35 AND/OR GPR35-HERG COMPLEX” (priority 2010, published 2012)
At least one compound was matched to its structure with a doubt left.

System: GPR35
Test: DMR desensitization / antagonism mode against GPR35 agonist-induced DMR in HT29 cells
Format: cell-based, human
Conditions: HT29 cells pretreated with compound, then GPR35 agonist

| SMILES | Desenstization to GPR35 agonist |
| --- | --- |
| CCCCCCCCCCC(=O)c1sc2c(Br)csc2c1Br [Compound 15, 3,6-dibromo-thieno[3,2-b]thiophene-2-undecanone] | desenstized |
| CCN(CC)C(=O)/C(C#N)=C/c1cc(O)c(O)c([N+](=O)[O-])c1 [Entacapone] | desenstized |
| COc1ccc(/C=C/C(=O)Nc2ccccc2C(=O)O)cc1OC [Tranilast] | desenstized |
